Test results as given in paper doi:10.1101/2025.07.14.664742.
Results are given in words; binding and its absence hold for the method and conditions named. Binding seen in cells or lysates may run through a third protein. Some entries that bind do so weakly or less than the wild type.

Chains of the proteins cited; added tags and fusions are not shown.
UniProt Q15172: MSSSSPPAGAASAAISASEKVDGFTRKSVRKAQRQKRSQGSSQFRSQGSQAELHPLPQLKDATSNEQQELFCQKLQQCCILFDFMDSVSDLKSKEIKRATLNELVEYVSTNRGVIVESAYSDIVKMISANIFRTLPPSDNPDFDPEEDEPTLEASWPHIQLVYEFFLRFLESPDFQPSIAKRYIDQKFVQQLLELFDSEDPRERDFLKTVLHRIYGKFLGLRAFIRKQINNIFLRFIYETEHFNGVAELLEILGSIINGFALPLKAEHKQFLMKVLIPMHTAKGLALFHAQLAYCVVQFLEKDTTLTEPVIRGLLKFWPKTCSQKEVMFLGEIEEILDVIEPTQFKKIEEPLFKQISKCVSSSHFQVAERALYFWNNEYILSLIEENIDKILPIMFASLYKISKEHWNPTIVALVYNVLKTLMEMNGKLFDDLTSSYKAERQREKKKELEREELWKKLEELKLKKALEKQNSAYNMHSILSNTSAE
UniProt Q9Y2I7: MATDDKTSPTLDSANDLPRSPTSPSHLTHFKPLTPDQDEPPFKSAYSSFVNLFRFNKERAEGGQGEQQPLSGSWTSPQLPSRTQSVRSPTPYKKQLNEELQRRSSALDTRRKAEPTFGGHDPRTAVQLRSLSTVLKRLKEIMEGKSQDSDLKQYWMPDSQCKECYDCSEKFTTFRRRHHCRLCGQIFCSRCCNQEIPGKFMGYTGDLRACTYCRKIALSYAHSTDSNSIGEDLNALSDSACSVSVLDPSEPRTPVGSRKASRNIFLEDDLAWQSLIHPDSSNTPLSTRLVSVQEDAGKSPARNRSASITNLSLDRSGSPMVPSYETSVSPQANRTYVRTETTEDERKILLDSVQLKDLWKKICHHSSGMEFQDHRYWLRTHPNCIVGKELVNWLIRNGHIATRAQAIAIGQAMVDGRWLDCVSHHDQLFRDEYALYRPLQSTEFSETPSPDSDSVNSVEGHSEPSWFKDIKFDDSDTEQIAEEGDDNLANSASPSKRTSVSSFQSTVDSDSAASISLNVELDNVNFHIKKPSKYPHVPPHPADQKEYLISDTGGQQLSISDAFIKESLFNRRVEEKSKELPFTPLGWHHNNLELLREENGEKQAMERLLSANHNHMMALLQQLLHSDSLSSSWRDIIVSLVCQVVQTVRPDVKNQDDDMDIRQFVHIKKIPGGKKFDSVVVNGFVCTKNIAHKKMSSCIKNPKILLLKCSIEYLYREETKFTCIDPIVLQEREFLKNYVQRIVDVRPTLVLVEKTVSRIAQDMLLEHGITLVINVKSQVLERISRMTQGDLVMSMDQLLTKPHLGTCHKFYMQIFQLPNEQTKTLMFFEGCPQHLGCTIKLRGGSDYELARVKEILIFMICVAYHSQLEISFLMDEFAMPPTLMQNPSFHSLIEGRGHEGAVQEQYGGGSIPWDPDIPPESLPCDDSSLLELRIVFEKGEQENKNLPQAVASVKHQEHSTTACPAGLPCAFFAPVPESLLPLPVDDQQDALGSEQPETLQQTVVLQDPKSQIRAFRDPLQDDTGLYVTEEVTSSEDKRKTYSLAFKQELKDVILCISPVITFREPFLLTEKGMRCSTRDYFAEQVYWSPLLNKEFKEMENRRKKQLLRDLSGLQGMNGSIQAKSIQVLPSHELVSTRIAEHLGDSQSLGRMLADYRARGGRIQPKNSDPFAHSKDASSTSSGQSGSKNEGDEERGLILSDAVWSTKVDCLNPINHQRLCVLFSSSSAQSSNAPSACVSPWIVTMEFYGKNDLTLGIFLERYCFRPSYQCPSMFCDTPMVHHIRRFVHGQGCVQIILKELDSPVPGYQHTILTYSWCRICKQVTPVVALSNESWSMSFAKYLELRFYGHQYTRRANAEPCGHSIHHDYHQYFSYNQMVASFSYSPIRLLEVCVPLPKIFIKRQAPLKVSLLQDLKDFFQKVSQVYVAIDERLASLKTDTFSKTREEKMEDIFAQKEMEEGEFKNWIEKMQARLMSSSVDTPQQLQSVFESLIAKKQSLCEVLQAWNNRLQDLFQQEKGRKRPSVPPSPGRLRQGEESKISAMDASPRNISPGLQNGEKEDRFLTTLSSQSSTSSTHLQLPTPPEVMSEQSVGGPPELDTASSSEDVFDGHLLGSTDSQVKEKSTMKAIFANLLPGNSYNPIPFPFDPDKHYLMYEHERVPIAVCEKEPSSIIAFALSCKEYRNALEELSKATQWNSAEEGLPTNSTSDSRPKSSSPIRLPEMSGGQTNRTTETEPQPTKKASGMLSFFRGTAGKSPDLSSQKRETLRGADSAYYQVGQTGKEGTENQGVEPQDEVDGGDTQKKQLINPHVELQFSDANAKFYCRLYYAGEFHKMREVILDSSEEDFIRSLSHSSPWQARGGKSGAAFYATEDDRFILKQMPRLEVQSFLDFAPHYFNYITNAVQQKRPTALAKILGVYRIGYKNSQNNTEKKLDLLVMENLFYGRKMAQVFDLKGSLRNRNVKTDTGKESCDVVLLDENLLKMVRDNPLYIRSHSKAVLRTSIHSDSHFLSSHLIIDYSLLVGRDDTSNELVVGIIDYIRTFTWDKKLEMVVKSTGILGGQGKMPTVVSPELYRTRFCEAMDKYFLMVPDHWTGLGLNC

How the values were obtained:
HA-B56α = HA-B56α (UniProt Q15172); experiment: proximity ligation
[1] = target: B56α endogenous protein (human (endogenous in HEK293T)) (UniProt Q15172); experiment: co-IP

binding (HA-B56α): binds
binding [1]: binds
Substance: PIKfyve-GFP (from UniProt Q9Y2I7 1-2098) (enzyme)
